The source of these data is PMC8536666.

Amino acid sequences for entries named in this document (tags omitted).
UniProt P34241: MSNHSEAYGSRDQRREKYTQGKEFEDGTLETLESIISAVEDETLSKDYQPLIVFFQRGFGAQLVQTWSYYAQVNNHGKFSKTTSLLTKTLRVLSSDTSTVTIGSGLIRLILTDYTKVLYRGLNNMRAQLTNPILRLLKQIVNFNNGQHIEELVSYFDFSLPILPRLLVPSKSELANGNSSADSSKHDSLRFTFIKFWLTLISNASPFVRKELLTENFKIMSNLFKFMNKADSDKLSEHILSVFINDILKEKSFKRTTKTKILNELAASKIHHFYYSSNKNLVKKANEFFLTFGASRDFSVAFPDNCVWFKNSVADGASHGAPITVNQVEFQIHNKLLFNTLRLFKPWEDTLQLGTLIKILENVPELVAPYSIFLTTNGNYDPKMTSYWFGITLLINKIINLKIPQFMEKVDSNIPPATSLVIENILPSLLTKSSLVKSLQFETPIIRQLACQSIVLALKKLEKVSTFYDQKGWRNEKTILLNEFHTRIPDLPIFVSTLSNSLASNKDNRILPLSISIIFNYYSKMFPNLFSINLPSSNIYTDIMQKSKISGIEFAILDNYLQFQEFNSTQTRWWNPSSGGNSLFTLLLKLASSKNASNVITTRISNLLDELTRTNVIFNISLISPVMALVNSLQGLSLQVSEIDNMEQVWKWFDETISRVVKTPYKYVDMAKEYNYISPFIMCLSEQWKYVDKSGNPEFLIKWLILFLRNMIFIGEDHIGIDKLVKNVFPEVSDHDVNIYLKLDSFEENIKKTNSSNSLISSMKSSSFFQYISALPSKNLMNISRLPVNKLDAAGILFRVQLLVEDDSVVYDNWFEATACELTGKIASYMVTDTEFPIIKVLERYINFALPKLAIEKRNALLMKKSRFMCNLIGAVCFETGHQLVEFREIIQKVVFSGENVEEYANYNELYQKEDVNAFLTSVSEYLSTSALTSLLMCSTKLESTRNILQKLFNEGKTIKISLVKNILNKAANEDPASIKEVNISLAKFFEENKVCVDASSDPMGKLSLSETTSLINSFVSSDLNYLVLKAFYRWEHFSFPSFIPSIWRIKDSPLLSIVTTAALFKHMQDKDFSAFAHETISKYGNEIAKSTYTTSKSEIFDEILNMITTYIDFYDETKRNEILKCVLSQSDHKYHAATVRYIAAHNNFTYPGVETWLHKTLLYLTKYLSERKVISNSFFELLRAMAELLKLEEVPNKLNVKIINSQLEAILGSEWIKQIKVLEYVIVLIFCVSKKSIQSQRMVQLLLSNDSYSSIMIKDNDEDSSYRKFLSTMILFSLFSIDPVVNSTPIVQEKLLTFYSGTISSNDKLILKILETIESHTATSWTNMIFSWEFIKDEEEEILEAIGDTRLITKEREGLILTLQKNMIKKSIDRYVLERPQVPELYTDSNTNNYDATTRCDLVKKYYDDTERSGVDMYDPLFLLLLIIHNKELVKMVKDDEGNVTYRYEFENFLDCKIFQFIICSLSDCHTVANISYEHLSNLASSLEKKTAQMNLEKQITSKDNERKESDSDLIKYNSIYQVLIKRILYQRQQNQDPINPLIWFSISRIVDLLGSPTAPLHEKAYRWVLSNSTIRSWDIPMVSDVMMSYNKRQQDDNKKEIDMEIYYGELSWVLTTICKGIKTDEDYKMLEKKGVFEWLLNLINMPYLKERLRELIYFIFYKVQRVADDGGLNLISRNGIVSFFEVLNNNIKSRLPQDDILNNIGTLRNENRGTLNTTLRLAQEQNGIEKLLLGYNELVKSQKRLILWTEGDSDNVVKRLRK
UniProt P53131: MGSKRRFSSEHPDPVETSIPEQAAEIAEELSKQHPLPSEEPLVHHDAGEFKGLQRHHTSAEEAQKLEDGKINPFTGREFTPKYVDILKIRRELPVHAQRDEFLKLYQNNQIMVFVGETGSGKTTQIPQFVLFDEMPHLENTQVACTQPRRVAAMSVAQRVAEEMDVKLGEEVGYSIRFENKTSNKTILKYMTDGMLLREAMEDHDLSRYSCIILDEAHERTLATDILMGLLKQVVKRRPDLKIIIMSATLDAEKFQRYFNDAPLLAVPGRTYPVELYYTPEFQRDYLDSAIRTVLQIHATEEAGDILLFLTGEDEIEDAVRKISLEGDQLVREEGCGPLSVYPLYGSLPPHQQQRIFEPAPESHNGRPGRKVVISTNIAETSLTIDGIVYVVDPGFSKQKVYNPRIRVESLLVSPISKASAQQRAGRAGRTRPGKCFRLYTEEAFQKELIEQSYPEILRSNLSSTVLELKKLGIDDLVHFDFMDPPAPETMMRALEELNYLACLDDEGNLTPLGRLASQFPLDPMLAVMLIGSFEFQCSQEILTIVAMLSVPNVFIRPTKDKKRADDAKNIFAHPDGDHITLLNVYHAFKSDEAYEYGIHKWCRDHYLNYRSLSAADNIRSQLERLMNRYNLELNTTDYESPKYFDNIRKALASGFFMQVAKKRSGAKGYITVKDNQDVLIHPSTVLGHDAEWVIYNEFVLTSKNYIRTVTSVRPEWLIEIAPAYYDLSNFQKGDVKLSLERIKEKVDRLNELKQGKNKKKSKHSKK

Sequences and labels used below:
T1: Noc1-TAP (S. cerevisiae) (UniProt Q12176)
T1 sequence: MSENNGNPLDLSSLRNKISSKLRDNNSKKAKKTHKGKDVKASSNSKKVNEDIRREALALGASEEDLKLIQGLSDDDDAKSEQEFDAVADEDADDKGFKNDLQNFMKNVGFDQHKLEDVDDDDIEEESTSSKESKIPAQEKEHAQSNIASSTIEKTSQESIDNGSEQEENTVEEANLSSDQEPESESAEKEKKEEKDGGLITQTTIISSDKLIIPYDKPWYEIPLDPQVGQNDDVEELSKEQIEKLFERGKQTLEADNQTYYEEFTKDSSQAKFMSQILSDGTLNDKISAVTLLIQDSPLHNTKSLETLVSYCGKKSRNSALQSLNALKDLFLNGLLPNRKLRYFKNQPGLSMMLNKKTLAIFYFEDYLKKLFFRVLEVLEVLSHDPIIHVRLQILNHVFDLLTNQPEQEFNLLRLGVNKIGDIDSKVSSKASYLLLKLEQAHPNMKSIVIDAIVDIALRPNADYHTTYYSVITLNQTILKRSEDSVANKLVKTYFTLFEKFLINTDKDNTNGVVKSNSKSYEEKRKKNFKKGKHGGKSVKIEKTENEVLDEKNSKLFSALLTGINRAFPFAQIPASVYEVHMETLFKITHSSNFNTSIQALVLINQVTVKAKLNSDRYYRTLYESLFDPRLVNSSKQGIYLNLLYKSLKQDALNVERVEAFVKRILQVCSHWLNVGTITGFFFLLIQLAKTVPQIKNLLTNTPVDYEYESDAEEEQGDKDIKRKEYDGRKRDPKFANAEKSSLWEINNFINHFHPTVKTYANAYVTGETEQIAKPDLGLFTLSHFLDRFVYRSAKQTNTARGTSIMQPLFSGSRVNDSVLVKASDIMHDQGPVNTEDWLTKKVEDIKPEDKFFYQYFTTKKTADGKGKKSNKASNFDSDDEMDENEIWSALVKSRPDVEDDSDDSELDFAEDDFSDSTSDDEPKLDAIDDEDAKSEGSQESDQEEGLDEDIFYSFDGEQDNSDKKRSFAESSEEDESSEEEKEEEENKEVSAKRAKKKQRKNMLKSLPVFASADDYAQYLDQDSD

B1: Nop8 (protein, UniProt Q08287 1-484)
chain: MDSVIQKRIFVGNIFHNADDCYSELLDRFGKFGDCQDFQFEKHNHFAFIDIRFNDEADFNKLRKSFNNVKFKGNILKVDEAKPNWESTWAVQHAKDLKEDIILNAKMKKKNWQHYKKMENVAKSWKDHKEVIAGRMREAPRKRSQLRNITFRINVNGSLKVYKCYKTKLWGYERNKELNDLVYKFTNNFWKNGYNHIVDRLDYSRAVKTVRFKNGLKQLTVSKDENVCSGEMDSDENMSEEEKEKNNVILNDLLKDFDFDKPMTLNDSDEELLTEQRKGEEEEEEEEEKEVNAPEYENVNKTKDQSTLPQEKPEERKEQDEGDGQEDNEFIPTFTKEIGQGTISNTETLRNLFNPNEAEPVSQFKLIEDSDNDIDHAKDVDVNQLEEEVSKSSDTLGLTSAPVPHVSRDKDNKNFLFFPHLQSPFLVGQTQLSKVRAPGRETMLSNWDEEFWANRGNWTRDMRRKMKDALKHRKRKQSKSGLLL
B2: Nhp2 (protein, UniProt P32495 1-156)
chain: MGKDNKEHKESKESKTVDNYEARMPAVLPFAKPLASKKLNKKVLKTVKKASKAKNVKRGVKEVVKALRKGEKGLVVIAGDISPADVISHIPVLCEDHSVPYIFIPSKQDLGAAGATKRPTSVVFIVPGSNKKKDGKNKEEEYKESFNEVVKEVQAL
B3: Dbp6 (protein, UniProt P53734 1-629)
chain: MFASRFDPSQLTAPAASAPEGIVGTTPPAIVPLKRQATESDNEEYGSHQDSDESSNSSSEEDEDRMQVDYGASEEDSSEVEEEESKPSTHSTVLSRFKQTVSLQERLGASDIAESKEDEGIEDEAASTHQLKQIPQPEFVKNPMNLNTNSLQFKSTGWLNTEKIYYDNSLIKPFSDYANELEAKLLQNICKNFSTNTFPIQSIILDSILPVLNFTLNVSKRNFTRRIGDILVNAATGSGKTLAYSIPIVQTLFKRQINRLRCIIIVPTKLLINQVYTTLTKLTQGTSLIVSIAKLENSLKDEHKKLSNLEPDILITTPGRLVDHLNMKSINLKNLKFLIIDEADRLLNQSFQGWCPKLMSHLKTDKLDTLPGNVIKMIFSATLTTNTEKLNGLNLYKPKLFLKQTDKLYQLPNKLNEFNINIPTAKSVYKPLILLYSICQFMAHSPIAAKILIFVKSNESSIRLSKLLQLICESRSQSSVLKNLQNLAVSINSVNSNNSKAENKKIVANFSHHSESAGITILITTDIMSRGIDINDITQVINYDPPMSSQQYVHRVGRTARANELGSAYNLLVGRGERTFFDDLNKDLDRDGKSVQPLELDFTLLESDSELYTSSLESLKNYHNNTAQA
B4: Rsa3 (protein, UniProt Q05942 1-220)
chain: MSAGDISAINIKSVKKNRRRKKRRTADVSSSDSSSSDPSSESEKEEIQNGAIEEHVGENGKSDHVFSKGNDEDKQEDIAIEVSDVELTDEESKDLKLNSKEVIDDLTKISLSKIPEPTKSQNKEGFMNASKIAENIKLAREEYNELAENFVPKGKDKTKLREEYLNLLFENYGDDINRLRAAPDFTNKSLSILADALQEGIGMFDIGELELVLKNKEMEN

These are yes or no findings as the source states them, for the method shown. In cells and extracts the contact can be indirect. Some results given as binding are weak or reduced against the parent protein; the word gives no strength.

This test concerns the target T1, Noc1-TAP (S. cerevisiae). As to the kind of experiment: co-IP; Noc1-TAP-containing preribosomal particles precipitated on IgG-Sepharose beads from total cell extracts of wild-type, snr190-[mut.C] and dbp7Δ strains; 2 h at 4 °C; A200-KCl buffer (20 mM Tris-HCl pH 8.0, 5 mM magnesium acetate, 200 mM KCl, 0.2% Triton-X100), final washes in A200-NaCl buffer; co-purified proteins detected by western blotting. On the technique in general: Immunoblotting shows a protein as a band on a membrane.
For the molecule Npa1 (from UniProt P34241 1-1764), the binding result is on record as “binds”.

For the molecule Prp43 (from UniProt P53131 1-767), the binding entry is “binds”.

With B1, the binding entry was “binds”.

Regarding B2, the binding result was “binds”.

For the molecule B3, the binding entry is “binds”.

For the molecule B4, the binding entry is given as “binds”.
